According to patent US10983112B2, “Bile acid biomarkers for Niemann-Pick diseases, methods and uses therefor” (Washington University, priority 2014, dated 2021):
No dose or concentration is given here for some results.

Legend:
[1] = NPC plasma vs controls; cited from earlier work
[2] = LC-MS/MS measurement of bile acids A and B in NPC1 and control dried blood spots (peak area); type: in vivo, human; settings: NPC1 vs control dried blood spots
[3] = LC-MS/MS profiling of bile acids in NPC1 and control plasma; type: in vivo, human; settings: NPC1 (n=12) vs control (n=11) plasma, peak area

| SMILES | fold elevation in plasma of NPC1 subjects [1] [fold] | fold elevation in NPC dried blood spots compared to controls [2] [fold] | fold elevation in NPC1 plasma compared to controls [3] [fold] |
| --- | --- | --- | --- |
| CC(C)CCC[C@@H](C)[C@H]1CC[C@H]2[C@@H]3C(=O)C=C4C[C@@H](O)CC[C@]4(C)[C@H]3CC[C@]12C [7-ketocholesterol] | 10 | – | – |
| C[C@H](CCC(=O)O)[C@H]1CCC2C3C[C@@H](O)[C@@]4(O)C[C@@H](O)CC[C@]4(C)C3CC[C@@]21C (stereo partly drawn) [Bile acid A, 3β,5α,6β-trihydroxycholanic acid] | – | 12 | – |
| C[C@H](CCC(=O)NCC(=O)O)[C@H]1CC[C@H]2[C@@H]3C[C@@H](O)[C@@]4(O)C[C@@H](O)CC[C@]4(C)[C@H]3CC[C@]12C [Bile acid B, N-(3β,5α,6β-trihydroxy-cholan-24-oyl)glycine] | – | 101 | 144 |
| CC(C)CCC[C@@H](C)[C@H]1CC[C@H]2[C@@H]3C[C@@H](O)[C@@]4(O)C[C@@H](O)CC[C@]4(C)[C@H]3CC[C@]12C [cholestane-3β,5α,6β-triol] | 10 | – | – |
